# Source: PMC7819943, “Rice protein-binding microarrays: a tool to detect cis-acting elements near promoter regions in rice”
# This is one part of the list.
# Biological target: T1, OsSMF1 (Oryza sativa, UniProt Q6ZLB0 1-436)
# T1 sequence: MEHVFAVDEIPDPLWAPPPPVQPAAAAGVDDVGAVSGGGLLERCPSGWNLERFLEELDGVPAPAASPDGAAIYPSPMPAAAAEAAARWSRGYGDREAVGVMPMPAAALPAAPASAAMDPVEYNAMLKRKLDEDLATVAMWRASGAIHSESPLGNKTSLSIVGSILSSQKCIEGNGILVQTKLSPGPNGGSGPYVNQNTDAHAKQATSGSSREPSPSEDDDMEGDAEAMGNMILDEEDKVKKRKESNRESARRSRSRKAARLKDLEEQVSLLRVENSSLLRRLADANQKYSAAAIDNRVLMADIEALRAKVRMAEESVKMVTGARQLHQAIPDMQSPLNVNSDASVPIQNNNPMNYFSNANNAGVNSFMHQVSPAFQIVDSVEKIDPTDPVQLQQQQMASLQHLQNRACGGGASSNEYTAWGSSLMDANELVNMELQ
# Experiment: protein-binding microarray (RPBM); PBS, 2% BSA, 51.3 ng/ul salmon testes DNA, 50 uM zinc acetate, 200 nM TF, 25 C, 1 h; high values mean tight binding
# Conditions: protein: recombinant; tags: N-terminal polyhistidine and DsRed monomer fusion (pET32a); chain copies: 2; label: CyDye5-dUTP incorporated in the synthesized complementary strand; 3' TTTTT single-stranded linker to array surface; dsDNA, one strand shown
# In short: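 Per-feature fluorescence intensity (arbitrary units), read on an Axon 4000B scanner, is the binding signal. Transcription factors carrying an N-terminal polyhistidine tag and DsRed fusion were expressed in E. coli BL21-CodonPlus and purified on Ni–NTA. A custom Agilent array, made double-stranded by primer extension with Cy5-dUTP and blocked with 2% BSA, was incubated with 200 nM protein in PBS, 2% BSA, salmon testes DNA and 50 µM zinc acetate at 25 °C for 1 h and then washed.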
row,Sequence,binding signal
1,AGCTGCGCTCGAGCCACGTCAAAGGATCTAGCTAGTACTACGGAGTCACCTAGTGCAG,5030 fluorescence intensity (a.u.)
2,CATCCCCACCTCTCTCCTCCTTCCGACCAATCTTTCTTCTCGGAGTCACCTAGTGCAG,21300 fluorescence intensity (a.u.)
3,CAGCGTAATTCGCCACCTGTTGCTGTCGCCGTCCTCCTCCCGGAGTCACCTAGTGCAG,3340 fluorescence intensity (a.u.)
4,TTTCGTTGTCCCTCGTCATTGCTAGACCCAACCGCCGCCACGGAGTCACCTAGTGCAG,4460 fluorescence intensity (a.u.)
5,TAAGCTACCGAAAACATGCGTGTGTTGCAATTGTCTCGGTCGGAGTCACCTAGTGCAG,4920 fluorescence intensity (a.u.)
6,CGTGCCTCCACCCCGCCGCCCGTTGACGGCCGCCCAGGTGCGGAGTCACCTAGTGCAG,22400 fluorescence intensity (a.u.)
7,AGATGAATGAATCAGTAGTCATGTTGAGTGGAGATGACTGCGGAGTCACCTAGTGCAG,3960 fluorescence intensity (a.u.)
8,TTCTCCCGTCGGATCCCGCGATCGTCCACGCCAGGGTTTACGGAGTCACCTAGTGCAG,3690 fluorescence intensity (a.u.)
9,TCACCGCGTACGTCACATTTACAGCTTTTGGTCGTCTATACGGAGTCACCTAGTGCAG,6150 fluorescence intensity (a.u.)
10,TCACCCGGAGAAATTCTCGAATAAACCCCTCACCACGGCGCGGAGTCACCTAGTGCAG,4270 fluorescence intensity (a.u.)
11,TGTACAATTGTATTAGCAATAAAATAAAAGGTAGATAAAGCGGAGTCACCTAGTGCAG,7950 fluorescence intensity (a.u.)
12,AGCGGACGCGCGGTATGGTCGATGGATGATGACACACGGTCGGAGTCACCTAGTGCAG,5210 fluorescence intensity (a.u.)
13,GTCGGCTACGTGTTCGACAACGTGACGTACCCGACAGAGCCGGAGTCACCTAGTGCAG,3640 fluorescence intensity (a.u.)
14,CAAATTTGGATTCGTTTTGTTCGTTTCCAGCTCACCCTGTCGGAGTCACCTAGTGCAG,5320 fluorescence intensity (a.u.)
15,TTAGAATTTCACACGTGGGCCTATCTAAACATTTTCATGGCGGAGTCACCTAGTGCAG,7560 fluorescence intensity (a.u.)
16,ATGCATTCCTCATGCATTCCTCTTACTTGTCCAAATAAAACGGAGTCACCTAGTGCAG,3400 fluorescence intensity (a.u.)
17,CTCTCAGCTCACGTGACGTCAACCCCGCCAAAACGCGTTACGGAGTCACCTAGTGCAG,3970 fluorescence intensity (a.u.)
18,TCAATCAATCAATTAATTAGTAATTCAAAGTACTAAACACCGGAGTCACCTAGTGCAG,5120 fluorescence intensity (a.u.)
19,TGGATAATGGTGAGTTGGAAAGGATTTCATCCTCTACCCTCGGAGTCACCTAGTGCAG,3640 fluorescence intensity (a.u.)
20,TCGCGCTGTCACCTAACATCAGGCAAGGGGCTCGTCACGTCGGAGTCACCTAGTGCAG,3180 fluorescence intensity (a.u.)
21,CCCCACCTGTCAGCCACGTCGTCGCTTGCGCCCACCTCCCCGGAGTCACCTAGTGCAG,15900 fluorescence intensity (a.u.)
22,ATCTTGATATCTGCAACATAAAATGTAACATCAGATTTAACGGAGTCACCTAGTGCAG,39500 fluorescence intensity (a.u.)
23,CCAACTCCTACTTCGTTGCGTTCGTTCTAAACCCGAGCCCCGGAGTCACCTAGTGCAG,28200 fluorescence intensity (a.u.)
24,TTGCTGCTGGCCATTCATACATACAGCCACGACTGCAAATCGGAGTCACCTAGTGCAG,3410 fluorescence intensity (a.u.)
25,TATACTTCAAAGTAATTTTGGCACACGAACTAAACACAGCCGGAGTCACCTAGTGCAG,3510 fluorescence intensity (a.u.)
26,GGCATTTAGAATAATACGTCATACGTTGGTTAAGCTTTTGCGGAGTCACCTAGTGCAG,6620 fluorescence intensity (a.u.)
27,CGTGTCCCCAAGAAACGAGCCACGTGGCGCGCTACCGCACCGGAGTCACCTAGTGCAG,28100 fluorescence intensity (a.u.)

# For convenience, part of the list above.
row,Sequence,binding signal
9,TCACCGCGTACGTCACATTTACAGCTTTTGGTCGTCTATACGGAGTCACCTAGTGCAG,6150 fluorescence intensity (a.u.)
10,TCACCCGGAGAAATTCTCGAATAAACCCCTCACCACGGCGCGGAGTCACCTAGTGCAG,4270 fluorescence intensity (a.u.)
11,TGTACAATTGTATTAGCAATAAAATAAAAGGTAGATAAAGCGGAGTCACCTAGTGCAG,7950 fluorescence intensity (a.u.)
12,AGCGGACGCGCGGTATGGTCGATGGATGATGACACACGGTCGGAGTCACCTAGTGCAG,5210 fluorescence intensity (a.u.)
13,GTCGGCTACGTGTTCGACAACGTGACGTACCCGACAGAGCCGGAGTCACCTAGTGCAG,3640 fluorescence intensity (a.u.)
14,CAAATTTGGATTCGTTTTGTTCGTTTCCAGCTCACCCTGTCGGAGTCACCTAGTGCAG,5320 fluorescence intensity (a.u.)
15,TTAGAATTTCACACGTGGGCCTATCTAAACATTTTCATGGCGGAGTCACCTAGTGCAG,7560 fluorescence intensity (a.u.)
16,ATGCATTCCTCATGCATTCCTCTTACTTGTCCAAATAAAACGGAGTCACCTAGTGCAG,3400 fluorescence intensity (a.u.)
17,CTCTCAGCTCACGTGACGTCAACCCCGCCAAAACGCGTTACGGAGTCACCTAGTGCAG,3970 fluorescence intensity (a.u.)
18,TCAATCAATCAATTAATTAGTAATTCAAAGTACTAAACACCGGAGTCACCTAGTGCAG,5120 fluorescence intensity (a.u.)
19,TGGATAATGGTGAGTTGGAAAGGATTTCATCCTCTACCCTCGGAGTCACCTAGTGCAG,3640 fluorescence intensity (a.u.)
20,TCGCGCTGTCACCTAACATCAGGCAAGGGGCTCGTCACGTCGGAGTCACCTAGTGCAG,3180 fluorescence intensity (a.u.)
21,CCCCACCTGTCAGCCACGTCGTCGCTTGCGCCCACCTCCCCGGAGTCACCTAGTGCAG,15900 fluorescence intensity (a.u.)
22,ATCTTGATATCTGCAACATAAAATGTAACATCAGATTTAACGGAGTCACCTAGTGCAG,39500 fluorescence intensity (a.u.)
23,CCAACTCCTACTTCGTTGCGTTCGTTCTAAACCCGAGCCCCGGAGTCACCTAGTGCAG,28200 fluorescence intensity (a.u.)
24,TTGCTGCTGGCCATTCATACATACAGCCACGACTGCAAATCGGAGTCACCTAGTGCAG,3410 fluorescence intensity (a.u.)
25,TATACTTCAAAGTAATTTTGGCACACGAACTAAACACAGCCGGAGTCACCTAGTGCAG,3510 fluorescence intensity (a.u.)

# The listing continues.

row,Sequence,binding signal
1,GTCTATCCTTTTCACGCACAATAATTTGTTATAGTTTAGACGGAGTCACCTAGTGCAG,24700 fluorescence intensity (a.u.)
2,GTAGATATGGGATATCCATAATCTCCACACGACCCAACCACGGAGTCACCTAGTGCAG,3210 fluorescence intensity (a.u.)
3,CTTCTAGTTTCCTCTTCCTCTCGCATCCTAGCGGCAGCGGCGGAGTCACCTAGTGCAG,29000 fluorescence intensity (a.u.)
4,CCGCTCGTCGATTAGCCGGCCACGCCTCCCGCTCGTGAAGCGGAGTCACCTAGTGCAG,3680 fluorescence intensity (a.u.)
5,CACAAAATGTCTTTGATACCATGGATGACTGTGATATGATCGGAGTCACCTAGTGCAG,4000 fluorescence intensity (a.u.)
6,CAATTCGTGTCACTGACACATTGGGCCCCATACCTCAACGCGGAGTCACCTAGTGCAG,6580 fluorescence intensity (a.u.)
7,TCATCGCACGATACCGCGAGCCAGGCATGCAGTCAGCTAGCGGAGTCACCTAGTGCAG,3240 fluorescence intensity (a.u.)
8,AGTAGAGCCAGTATAATGGGATTGTATCACGTCAGCAAAACGGAGTCACCTAGTGCAG,5400 fluorescence intensity (a.u.)
9,TAGGATGACGTCCAATTCTTAATGTTCCGTGGGATGACCCCGGAGTCACCTAGTGCAG,3690 fluorescence intensity (a.u.)
10,GATACCGGCCACGATGTCATTTTCACGTCATTCTCGTGCACGGAGTCACCTAGTGCAG,7100 fluorescence intensity (a.u.)
11,TATAATATATATAATATCAGATGTGACATGCCAACGCCGCCGGAGTCACCTAGTGCAG,4570 fluorescence intensity (a.u.)
12,ATCCGTCCTCCATTCTCAGGCCAGTTCTTGCAAGACTCTTCGGAGTCACCTAGTGCAG,8840 fluorescence intensity (a.u.)
13,GCTCGCTCGCTCGCTGACGTGTACGCTTCGCGGCGGAGGCCGGAGTCACCTAGTGCAG,15000 fluorescence intensity (a.u.)
14,CATATGTAACTTTTAACATATAAGGGCCCTCTTTAGATCCCGGAGTCACCTAGTGCAG,6680 fluorescence intensity (a.u.)
15,TAAAGCCATGACCTGTTCATACTTCATACACATCAACGCGCGGAGTCACCTAGTGCAG,3290 fluorescence intensity (a.u.)
16,CTCGTGCATCAGAAAATGGCGCACCGCCAGGCCCACCCAGCGGAGTCACCTAGTGCAG,3320 fluorescence intensity (a.u.)
17,GAATCGCCCCTCCGCGGCACGAGTCCACGACGGCAAGAAACGGAGTCACCTAGTGCAG,31700 fluorescence intensity (a.u.)
18,ATAGGACCTATGACTACAACTATCTCTCGGTTGTCACGAACGGAGTCACCTAGTGCAG,3690 fluorescence intensity (a.u.)
19,ATATCCATGGACCGGATCGCTGACACGTGGCGTACCACGTCGGAGTCACCTAGTGCAG,18100 fluorescence intensity (a.u.)
20,GTGTGACTCATGCTTTCTCCAGCCCAGCCCAGCCCAGCCCCGGAGTCACCTAGTGCAG,8380 fluorescence intensity (a.u.)
21,TGTGATGTGGGCATGCGTGTGCGCACGTGTTCTATTGGTGCGGAGTCACCTAGTGCAG,17600 fluorescence intensity (a.u.)
22,GCTCGCCGAGTCAGCGTTTGAGCTCGTTAGTCTTAACGATCGGAGTCACCTAGTGCAG,5390 fluorescence intensity (a.u.)
23,ACTTCTACTCAATTACACCTCATCCTTGCATACAAACAAACGGAGTCACCTAGTGCAG,3650 fluorescence intensity (a.u.)
24,TTCAAGAAACATTATGGTCAGTTGACACGGCTCTATCGCACGGAGTCACCTAGTGCAG,3280 fluorescence intensity (a.u.)
25,ATTTCCTTTTGTTGCTGTGCCACGCCACCCAACCCAACCCCGGAGTCACCTAGTGCAG,7360 fluorescence intensity (a.u.)
26,AGCTGACTCCCTCGATGGTGACAGGTCTGAAGAAGCTTGGCGGAGTCACCTAGTGCAG,3250 fluorescence intensity (a.u.)
27,TATGCGCGCAGAGTTTGCAAGGCCAGGTCATCCATGCTCGCGGAGTCACCTAGTGCAG,3810 fluorescence intensity (a.u.)
